# Data as given in PubChem BioAssay AID1671190 (National Center for Advancing Translational Sciences (NCATS), 2021).
# By UniProt entry, the sequences of proteins in these tests, tags left out. Where a name states a change or a piece, a line headed by the entry shows the natural chain unless it says otherwise.
# UniProt P18054: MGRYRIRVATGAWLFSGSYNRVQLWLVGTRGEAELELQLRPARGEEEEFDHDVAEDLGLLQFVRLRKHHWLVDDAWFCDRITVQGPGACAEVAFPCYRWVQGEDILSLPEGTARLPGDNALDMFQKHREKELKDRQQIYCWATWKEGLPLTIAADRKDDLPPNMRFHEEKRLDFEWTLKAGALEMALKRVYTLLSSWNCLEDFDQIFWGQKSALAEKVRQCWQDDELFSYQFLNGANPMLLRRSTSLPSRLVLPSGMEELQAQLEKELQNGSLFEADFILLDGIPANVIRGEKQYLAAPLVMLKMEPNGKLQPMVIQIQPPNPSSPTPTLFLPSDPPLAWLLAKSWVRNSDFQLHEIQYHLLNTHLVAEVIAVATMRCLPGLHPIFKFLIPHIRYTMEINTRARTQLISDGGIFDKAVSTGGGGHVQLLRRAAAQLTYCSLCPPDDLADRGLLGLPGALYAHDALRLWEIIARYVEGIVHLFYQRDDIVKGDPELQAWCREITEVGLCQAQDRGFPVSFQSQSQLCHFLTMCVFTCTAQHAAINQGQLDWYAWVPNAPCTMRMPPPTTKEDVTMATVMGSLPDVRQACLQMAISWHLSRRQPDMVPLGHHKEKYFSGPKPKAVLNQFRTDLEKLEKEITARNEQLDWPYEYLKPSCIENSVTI
# Where “and” joins values, the source holds several entries; their conditions need not be identical. Identical values can stand only once. Among all 580,000 compounds or so, about 6,100 (1.1%) were called active. This list was built around the results that the source calls inconclusive (neither active nor inactive); the mix of calls is not that of the screen. The call rests on the fitted dose curve; in most records, active means well fitted inhibition curve with a large enough effect; inconclusive means small, poorly fitted or top-dose-only effect, or another doubt; inactive means no such curve, though single readings can be large or run the other way. Potencies beside an inconclusive call are fits to weak or partial responses and may not hold up.
# Target: Polyunsaturated fatty acid lipoxygenase ALOX12 (Homo sapiens) (UniProt P18054)
# Assay: Primary qHTS assay for inhibitors of human arachidonate 12S-lipoxygenase (ALOX12): Round 2
# Conditions: purified 12hLO, xylenol orange hydroperoxide absorbance; activity change, negative = inhibition: at 108 µM (top of the series) unless noted
# Method in brief: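 Purified human 12hLO (150 nM final) in 25 mM Hepes, 0.01% Triton X-100, pH 7.0 was preincubated 15 min at room temperature with compound. Then 40 uM arachidonic acid was added, 30 min. Hydroperoxide was read by Fe-XO absorbance ratio 573/405 nm.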
# On the % scale 0 is the no-effect control and ±100 the full control effect; potency means the concentration at half of the fitted maximal effect.
Compound,"activity change, negative = inhibition",Potency
Cc1ccsc1C(=O)N1CCCC(N2CCN(c3cccc(Cl)c3)CC2)C1 (configuration not stated),inactive: 6.01%,–
Cc1oc(=O)c(NC(=O)c2ccccc2)cc1C(=O)c1ccccc1,–,"inconclusive: 50.1 µM [inhibitor, partial curve, poor fit]"
Cc1c(N=Cc2ccccn2)c(=O)n(-c2ccccc2)n1C,inactive: -15.6%,–
Cn1c(SCC(=O)N2CCOCC2)nnc1-c1ccccc1,–,"inconclusive: 44.7 µM [inhibitor, partial curve, poor fit]"
Cc1nc(-c2ccc(F)cc2)n(Cc2ccccc2F)c(=O)c1CCO,–,"inconclusive: 22.4 µM [inhibitor, full curve, poor fit]"
C/C(=N/NC(=S)NCc1ccccc1)c1cccc(C(F)(F)F)c1,–,active: 12.6 µM
Cc1ccc(NC(=O)C2(C)CCN2C(=O)Cc2ccc(-c3ccccc3)cc2)cc1 (configuration not stated),inactive: -24.7%,–
CCC(C(=O)Nc1sc(C)c(C)c1C#N)c1ccccc1 (configuration not stated),–,"inconclusive: 7.08 µM [inhibitor, full curve]"
CCC1Oc2ccc(NC(=O)Cc3ccc(F)cc3)cc2CN(Cc2ccc(Cl)cc2)C1=O (configuration not stated),–,"inconclusive: 1.41 µM [inhibitor, full curve]"
C#CCNC(=O)C1=C[C@H](C2CCCCC2)C[C@H](OCCCCO)O1,–,"inconclusive: 50.1 µM [inhibitor, partial curve, poor fit]"
COc1ccc(OC)c(CC(=O)Nc2ccc3c(c2)c(=O)n(C)n3Cc2cccc(C(F)(F)F)c2)c1,–,"inconclusive: 50.1 µM [inhibitor, partial curve, poor fit]"
O=C(Nc1ccc2c(c1)OCCO2)C(c1ccc(C(F)(F)F)cc1)n1c(=O)c(-c2cc3ccccc3[nH]2)nc2ccccc21 (configuration not stated),–,"inconclusive: 100 µM [inhibitor, single point]"
Cc1nc2cc(NC(=O)COc3cccc(Br)c3)ccc2o1,–,"inconclusive: 50.1 µM [inhibitor, partial curve, poor fit]"
O=C(CSCC(=O)Nc1nc(-c2ccc3c(c2)OCO3)cs1)Nc1nccs1,inactive: 21.4%,–
Cc1cc(=O)n(CC(=O)Nc2ccc(F)c(Cl)c2)c(N2CCc3ccccc3C2)n1,inactive: 12.8%,–
Cc1cc(OCC(=O)Nc2ccc3c(c2)OCCO3)c2c(C)cc(=O)oc2c1,inactive: 42.4%,–
COc1ccc(CNCc2ccc(C)s2)cc1OCC(O)CN1CCCCC1 (configuration not stated),inactive: -0.253%,–
CCCn1nnc(NC(=S)NC(=O)c2ccccc2OC)n1,–,"inconclusive: 39.8 µM [inhibitor, single point]"
COc1cc(NC(=O)CCc2ccccc2)c(C(=O)O)cc1OC,–,"inconclusive: 89.1 µM [inhibitor, partial curve, poor fit]"
Cc1ccc(S(=O)(=O)N2CCCC(C(=O)NCCc3ccc(Cl)cc3)C2)cc1 (configuration not stated),–,"inconclusive: 20 µM [inhibitor, full curve, poor fit]"
Cc1ccc(/C=C/S(=O)(=O)NCC(=O)OCC(=O)Nc2c(F)cccc2F)cc1,–,"inconclusive: 44.7 µM [inhibitor, partial curve, poor fit]"
Cc1c(CC(=O)N2CCC(O)(c3ccc(Cl)cc3)CC2)c(=O)oc2c(C)c(O)ccc12,–,"inconclusive: 44.7 µM [inhibitor, single point]"
CCCCn1c(Cn2nc(C(=O)O)c3ccccc3c2=O)nc2cc(S(N)(=O)=O)ccc21,–,"inconclusive: 63.1 µM [inhibitor, partial curve, poor fit]"

Compound,"activity change, negative = inhibition",Potency
CCCCC1CN(c2ccc(Cl)cc2)C(=O)CN1C(=O)CNC(=O)OC (configuration not stated),–,"inconclusive: 0.631 µM [inhibitor, single point]"
Cc1ccc(C(=O)NC(=S)Nc2cccc3nsnc23)cc1,inactive: 80.1%,–
CS(=O)(=O)c1ccc(-c2sc3cc4c(cc3c2C(=O)NN2CCOCC2)OCO4)cc1,–,"inconclusive: 39.8 µM [inhibitor, partial curve, poor fit]"
COC(=O)/C=C1/SC(=NC(=O)c2ccc(OC)cc2)NC1=O,–,"inconclusive: 79.4 µM [inhibitor, partial curve, poor fit]"
O=[N+]([O-])c1ccc2cc[nH]c2c1,–,"inconclusive: 44.7 µM [inhibitor, partial curve, poor fit]"
O=C(Nc1ccc(Cl)cc1Cl)C1CC2CCC1C2 (configuration not stated),–,"inconclusive: 89.1 µM [inhibitor, single point]"
O=C(c1[nH]c(C(F)(F)F)nc1-c1ccccc1)N1CCN(c2ccc(C(F)(F)F)cn2)CC1,inactive: 3.48%,–
CC1CCCCC1n1c(=S)[nH]c2ccccc2c1=O (configuration not stated),–,"inconclusive: 44.7 µM [inhibitor, partial curve, poor fit]"
CCc1cn(C[C@H](NC(=O)C(C)(C)C)C(=O)O)c(=O)[nH]c1=O,–,"inconclusive: 56.2 µM [inhibitor, partial curve]"
CCOC(=O)CSc1nc(C)cc(C)c1C#N,inactive: 2.07%,–
Nc1nc(Cl)nc2c1ncn2[C@H]1C[C@H](O)[C@@H](CO)O1,–,"inactive and inconclusive: 44.7 µM [inhibitor, partial curve, poor fit]"
N#Cc1ccc(C(=O)NCCc2ccco2)cc1,inactive: 16.9%,–
O=Cc1cccc(N2CCN(C(=O)N3CCCCC3)CC2=O)c1,inactive: 3.7% [at 6.33 µM],–
COCCn1c(=O)c(CCc2ccccc2)nc2cnc(N(C)C)nc21,–,"inconclusive: 112 µM [inhibitor, single point]"
O=C(NNc1ccc([N+](=O)[O-])cc1)C1CC2CCCC(C1)C2=O (configuration not stated),–,"inconclusive: 100 µM [inhibitor, partial curve, poor fit]"
COc1ccc(NC(=O)CSc2nnc(-n3nc(C)cc3C)n2N)cc1Cl,–,"inconclusive: 126 µM [inhibitor, single point]"
S=C(NN=C1CCN(Cc2ccccc2)CC1)NC1CCCCC1,–,"inconclusive: 44.7 µM [inhibitor, partial curve]"
COc1ccc(C(=O)Nc2oc3ccc(Cl)cc3c(=O)c2-c2ccc3c(c2)OCO3)cc1,–,"inconclusive: 35.5 µM [inhibitor, partial curve, poor fit]"
Cc1cccc(OCCSC(C)C(=O)NC(C)(C)C)c1 (configuration not stated),inactive: 3.66%,–
O=C(NCCc1c[nH]c2ccccc12)c1ccc(Cl)cc1,–,"inconclusive: 79.4 µM [inhibitor, partial curve, poor fit]"
Cc1ccc(-n2nc3ccc(NC(=O)/C=C/c4ccco4)cc3n2)cc1C,–,"inconclusive: 15.8 µM [inhibitor, full curve]"
Cn1cc(CC(=O)N2CCCc3ncc(C(=O)NCC4CCCO4)cc32)c2ccccc21 (configuration not stated),–,"inconclusive: 2.82 µM [inhibitor, full curve, poor fit]"
CCOc1ccc(OCCC(=O)N2CCc3cc(OC)c(OC)cc3C2)cc1,–,"inconclusive: 126 µM [inhibitor, single point]"

Compound,"activity change, negative = inhibition",Potency
O=C(Nc1c(F)c(F)c(F)c(F)c1F)C12CC3CC(CC(C3)C1)C2,inactive: 54.8%,–
CCS(=O)(=O)c1nc(S(=O)(=O)c2ccc(C)cc2)c(NC2CCCC2)s1,inactive: -5.88%,–
CC1(C)NC(=O)N(CC(=O)OCC(=O)Nc2sccc2C#N)C1=O,–,"inconclusive: 89.1 µM [inhibitor, single point]"
O=C(N1CCC(c2n[nH]c(=O)n2Cc2ccc(F)cc2)CC1)C1(c2ccccc2)CC1,–,"inconclusive: 8.91 µM [inhibitor, full curve]"
CCOc1ccc(C(=O)NC(=S)Nc2ccccc2OC)cc1[N+](=O)[O-],–,"inconclusive: 7.08 µM [inhibitor, full curve]"
CC(=O)Nc1ccc(-c2csc(Nc3ccc(Br)cc3)n2)cc1,inactive: -22.9%,–
Cc1ccc(CNC(=O)c2ccc(Nc3cc(-c4ccc(F)cc4)ncn3)cc2)o1,inactive: 1.19%,–
Cc1snc(SCC(=O)c2ccc([N+](=O)[O-])cc2)c1C#N,–,"inconclusive: 3.55 µM [inhibitor, full curve, poor fit]"
C[C@]12Cc3ccccc3C1CC1=N[C@@H](c3ccc(C(F)(F)F)cc3)O[C@@]13C[C@@H]2C(=O)N3Cc1ccncc1 (some centres not stated),inactive: 12.2%,–
Cc1cc(-c2n[nH]c(=S)n2/N=C/c2ccc(C)s2)n[nH]1,–,"inconclusive: 44.7 µM [inhibitor, partial curve, poor fit]"
O=C1/C(=C/c2ccc(F)cc2)CCc2ccccc21,inactive: -2.32%,–
Nc1c(C2CCCCC2)c(=O)on1C(=O)c1ccccc1,–,"inconclusive: 10 µM [inhibitor, full curve, poor fit]"
CCOC(=O)c1ccc(N2C(=O)CC(NC3CCN(C(=O)c4ccc(F)cc4)CC3)C2=O)cc1 (configuration not stated),–,"inconclusive: 4.47 µM [inhibitor, full curve, poor fit]"
Cc1ccc(S(=O)(=O)Nc2ccc(S(=O)(=O)Nc3ncccn3)cc2)cc1,inactive: 0.803%,–
C[n+]1c(-c2ccccc2)sc([S-])c1-c1ccccc1,–,"inconclusive: 112 µM [inhibitor, single point]"
CCOc1ccc(S(=O)(=O)N2CCN(C(=O)CCOc3ccccc3C)CC2)cc1,inactive: -28.6%,–
CCOC(=O)C(NC(=O)c1cc2ccccc2o1)C(=O)OCC,–,"inconclusive: 50.1 µM [inhibitor, partial curve, poor fit]"
COc1ccc(C)cc1C(C)NC(=O)c1ccc2c(c1)OCO2 (configuration not stated),inactive: 12.3%,–
CC1CCN(C(=O)CSc2nc3c([nH]c4ccccc43)c(=O)n2-c2ccccc2)CC1,–,"inconclusive: 63.1 µM [inhibitor, partial curve, poor fit]"
O=C(Nc1ccccc1-c1nc2ccccc2[nH]1)c1ccc(N2C(=O)CCC2=O)cc1,inactive: -7.16%,–
Cc1sc2ncnc(N[C@@H](CCC(=O)O)C(=O)O)c2c1C,–,"inconclusive: 100 µM [inhibitor, single point]"
